Reference: PMC11284788 (Journal of Medicinal Chemistry, 2024)

Assay: general procedure: Fmoc solid-phase peptide synthesis; Rink amide resin; OxymaPure/DIC
Settings: whole synthesis, 214 nm, one disulfide bridge, sequence written open

Going from “KCNTATCATQRLADFLRHSSNPFGAPLSSTNVGSDTY-NH2 (cysteine pairing not given here)” to “KCNTATCATQRLADFLRHSSPNFGAIPSSTNVGSDTY-NH2 (cysteine pairing not given here)”, the “final HPLC purity” value rises from 97.5% to 100%.

“KCNTATCATQRLADFLRHSSPNFGAIPSSTNVGSRTY-amide” and “KCNTATCATQRLAEFLRHSSPNFGAIPSSTNVGSRTY-NH2 (cysteine pairing not given here)” are the same in “final HPLC purity” value: 100% for the first, 100% for the second.

Ends that are not written are not given here.
